# Assay results published in patent US20160089401A1, “USES OF TREHALOSE IN CELL SUSPENSIONS” (Cook General Biotechnology LLC, priority 2014, published 2016).
# System: canine uterine regenerative cells (mesenchymal stem cell populations obtained from canine uterine tissue)
# Assay: Cell morphology 24 hours after plating into T25 flasks
# Assay type: cell-based
# Description: After time in the bag had expired, the cells were carefully removed from the bag with a syringe and 18 gauge needles. This volume was carefully placed in a 50 mL conical flask. It was mixed to ensure even distribution of cells, then mixed 1:1 with trypan blue and counted to determine viability. The volume was then centrifuged at 400 g for 5 minutes, supernatant aspirated, and resuspended in 2mL complete media. 1 mL of this cell suspension was then plated into a T25 flask. 24 hours later, the plates were observed and the condition of the cells noted.
structure (smiles),measurement,setting,value
"OC[C@H]1O[C@H](O[C@H]2O[C@H](CO)[C@@H](O)[C@H](O)[C@H]2O)[C@H](O)[C@@H](O)[C@@H]1O [trehalose, (2R,3S,4S,5R,6R)-2-(hydroxymethyl)-6-[(2R,3R,4S,5S,6R)-3,4,5-trihydroxy-6-(hydroxymethyl)oxan-2-yl]oxyoxane-3,4,5-triol]",cell morphology,"Donor1 cells, 24 hours after plating in T25 flasks, trehalose 3.3%, hydroxyethyl starch 25%",normal
same,cell morphology,"summary, cells plated into T25 flasks",normal
